Tested on: primary human cervical keratinocytes (PHK)
Test: Growth of control primary human cervical keratinocytes, Coulter Counter cell count
Assay type: cell-based

In the case of “2′,3′-cyclophosphateadenylyl(2′,5′)adenylyl-(2′,5′)adenosine [Cmpd. I]”, the “Ratio of IC50 at day 3 to IC50 at day 5” value (Day 5) is reported as 0.7, the “Ratio of IC50 at day 3 to IC50 at day 7” value (Day 7) is reported as 0.4 and the “Ratio of IC50 at day 3 to IC50 at day 10” value (Day 10) is reported as 0.4.

Source: patent US20020123480A1, “Methods and compositions utilizing 2'-5' oligoadenylates in the treatment of disorders of cell proliferation” (priority 2000, published 2002)
